For two molecules, binding results are on record in PMC10372406.

This assay concerns the target FAM122A-HA (human). The experiment in a line: co-IP; FAM122A with B55-FL or B56-FL subunits in transfected 293T lysates, done in both directions (Fig. S5B); the text gives one result for each pair.

Results are given in words; binding and its absence hold for the method and conditions named. Binding seen in cells or lysates may run through a third protein. A result given as binding can be weak or reduced; the word gives no strength. Tags and fused reporters may be left off the sequences shown.

B1: PP2A regulatory subunit B55β, FLAG-tagged (B55-FL) (protein, UniProt Q00005 1-443)
chain: MEEDIDTRKINNSFLRDHSYATEADIISTVEFNHTGELLATGDKGGRVVIFQREQESKNQVHRRGEYNVYSTFQSHEPEFDYLKSLEIEEKINKIRWLPQQNAAYFLLSTNDKTVKLWKVSERDKRPEGYNLKDEEGRLRDPATITTLRVPVLRPMDLMVEATPRRVFANAHTYHINSISVNSDYETYMSADDLRINLWNFEITNQSFNIVDIKPANMEELTEVITAAEFHPHHCNTFVYSSSKGTIRLCDMRASALCDRHTKFFEEPEDPSNRSFFSEIISSISDVKFSHSGRYIMTRDYLTVKVWDLNMENRPIETYQVHDYLRSKLCSLYENDCIFDKFECVWNGSDSVIMTGSYNNFFRMFDRNTKRDVTLEASRENSKPRAILKPRKVCVGGKRRKDEISVDSLDFSKKILHTAWHPSENIIAVAATNNLYIFQDKVN
As to B1, the binding entry was “binds”.

B2: PP2A regulatory subunit B55γ, FLAG-tagged (B55-FL) (protein, UniProt Q9Y2T4 1-447)
chain: MGEDTDTRKINHSFLRDHSYVTEADIISTVEFNHTGELLATGDKGGRVVIFQREPESKNAPHSQGEYDVYSTFQSHEPEFDYLKSLEIEEKINKIKWLPQQNAAHSLLSTNDKTIKLWKITERDKRPEGYNLKDEEGKLKDLSTVTSLQVPVLKPMDLMVEVSPRRIFANGHTYHINSISVNSDCETYMSADDLRINLWHLAITDRSFNIVDIKPANMEDLTEVITASEFHPHHCNLFVYSSSKGSLRLCDMRAAALCDKHSKLFEEPEDPSNRSFFSEIISSVSDVKFSHSGRYMLTRDYLTVKVWDLNMEARPIETYQVHDYLRSKLCSLYENDCIFDKFECAWNGSDSVIMTGAYNNFFRMFDRNTKRDVTLEASRESSKPRAVLKPRRVCVGGKRRRDDISVDSLDFTKKILHTAWHPAENIIAIAATNNLYIFQDKVNSDMH
In the case of B2, the binding result is listed as “binds”.
